Laboratory results taken from patent US20240184137A1, “CONTACT LENSES AND METHODS OF MAKING CONTACT LENSES” (University of Florida Research Foundation, Inc., priority 2021, published 2024).
Values after ≈ are worked out from the molar mass of the structure shown. Read-outs that look alike come from different tables or passages of the source. For at least one compound, name, drawing or mass did not settle the structure.

What was measured:
[1] = In vitro triumvirate drug release from vitamin-E modified ACUVUE OASYS lenses in PBS; type: physicochemical
[2] = In vitro moxifloxacin release from VE loaded senofilcon A lenses under sink conditions; type: physicochemical
[3] = tested on: Pseudomonas aeruginosa; details: keratitis isolates; cited from earlier work
[4] = tested on: S. Aurelius; details: cited from earlier work
[5] = ACUVUE OASYS lenses with 30% vitamin E, release in PBS

**Q.** For C[C@@H]1C[C@H]2[C@@H]3CCC4=CC(=O)C=C[C@]4(C)[C@@]3(F)[C@@H](O)C[C@]2(C)[C@@]1(O)C(=O)CO [dexamethasone], which Release duration [1, 5] is on record?
**A.** 200 h

**Q.** And the Release duration ([1]; control lens without vitamin E)?
**A.** a few hours

**Q.** For C[C@H]1COc2c(N3CCN(C)CC3)c(F)cc3c(=O)c(C(=O)O)cn1c23 [levofloxacin], which Release duration [1, 5] is on record?
**A.** 60 h

**Q.** And the Release duration ([1]; control lens without vitamin E)?
**A.** a few hours

**Q.** Which Release duration ([2]; 20% VE loaded lenses) does the source give for COc1c(N2C[C@@H]3CCCN[C@@H]3C2)c(F)cc2c(=O)c(C(=O)O)cn(C3CC3)c12 [moxifloxacin] here?
**A.** 3 days

**Q.** And the “Amount of drug released” value ([2]; 20% VE loaded lenses soaked in 5 mg/ml drug solution)?
**A.** 100 µg

**Q.** And the “Amount of drug released” value ([2]; 20% VE loaded lenses soaked in 20 mg/ml drug solution)?
**A.** 225 µg

**Q.** And the Expected release duration ([2]; 30% VE lenses)?
**A.** 7 days

**Q.** What about the MIC50 [3] of the same compound?
**A.** 3.0 µg/mL (≈ 7.47 µM)

**Q.** What about the MIC95 ([4]; resistant strains) of the same compound?
**A.** 1.5 to 12 µg/mL

**Q.** And the MIC95 ([4]; susceptible strains)?
**A.** 0.047 to 0.094 µg/mL
